# In PubChem BioAssay (NCATS):
# Inconclusive means that the source gave no clear call. Such entries were picked first, then a sample of the others. Potencies of inconclusive entries are doubtful fits and often do not repeat. The source made the active and inactive calls. Calls come from the whole dose curve; as a rule, active = well fitted activation curve with a large enough effect; inconclusive = small, poorly fitted or top-dose-only effect, or another doubt; inactive = no such curve, though single readings can be large or run the other way.
# Biological target: Rap guanine nucleotide exchange factor 3 (Homo sapiens) (UniProt O95398)
# Test: Counterscreen qHTS for agonist of cAMP-regulated guanine nucleotide exchange factor 3 (EPAC1) (AID 1645889); note: nearly all actives have a fitted effect of over 40% in size; for activation: % of control where 0% means no effect
# Conditions: EPAC1 Rap1B-BODIPY-GDP exchange, fluorescence; activation: at 154 µM (top of the series) unless noted
# Procedure, shortened: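 Measured: fluorescence of BODIPY-GDP bound to Rap1B, which falls as exchange proceeds. Conditions include 50 uM competing GDP, 5 and 30 min reads, and a later cAMP challenge for antagonist detection.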
# Potency is the fitted concentration of half-maximal effect.
SMILES,Potency,activation
COc1ccc(-n2c(SCC(=O)Nc3nccs3)nc3c(c2=O)SC(C)C3)cc1 (stereo unspecified),"inconclusive: 22.4 µM [activator, partial curve, poor fit]",
CCOC(=O)c1ccccc1NC(=O)c1c(-c2ccccc2)noc1C,"inconclusive: 50.1 µM [activator, partial curve, poor fit]",
CC(C)c1nn2c(=O)cc(COC(=O)c3cccc(NC(=O)c4cccs4)c3)nc2s1,,inactive: 12.1%
CCOc1cc(C2C3=C(CC(C)(C)CC3=O)N(CCOC)C3=C2C(=O)CC(C)(C)C3)ccc1O,,inactive: -9.95%
O=c1[nH]c([N+](=O)[O-])nn1C(c1ccccc1)c1ccccc1,,inconclusive: 27.8% [activator]
COC(=O)C1=CN(Cc2cccs2)C=C(C(=O)OC)C1c1cccc(O)c1,"inconclusive: 2.82 µM [activator, full curve, poor fit]",
COc1ccc2oc(C(=O)CCC(=O)O)c(N)c2c1,,inconclusive: 56.2% [activator] [at 30.8 µM]
CCCc1cc(C(=O)Nc2ccccc2C(=O)OC)no1,,inconclusive: 20.3% [activator]
CCOc1ccccc1NC1c2ccccc2C(=O)N1Cc1ccco1 (stereo unspecified),"inconclusive: 10 µM [activator, full curve, poor fit]",
C=CCc1ccc(OC(=O)c2ccccc2)c(OC)c1,"inconclusive: 0.631 µM [activator, full curve, poor fit]",
OC[C@@H]1[C@@H](c2ccc(F)cc2)C(c2cccc(Cl)c2)=NN1c1ccccc1,active: 12.6 µM,
O=C1/C(=C\c2ccc(Br)cc2)SC(=S)N1NS(=O)(=O)c1ccccc1,,inconclusive: 54.3% [activator] [at 30.8 µM]
CNc1c(-n2cc(C(=O)OC)c(C(=O)OC)c2C(=O)OC)c(=O)n(C)c(=O)n1C,"inconclusive: 22.4 µM [activator, partial curve, poor fit]",
O=C(O)CSc1cc(NS(=O)(=O)c2ccc(Cl)cc2)c2ccccc2c1O,"inconclusive: 14.1 µM [activator, partial curve, poor fit]",
Oc1cccc(C(Nc2ccccn2)c2ccc3cccnc3c2O)c1Cl (stereo unspecified),"inconclusive: 39.8 µM [activator, partial curve, poor fit]",
O=C(/C=C/c1ccccc1)c1cc(Br)ccc(=O)c1O,,inconclusive: 37.3% [activator]

SMILES,Potency,activation
CC(C)OC(=O)NC(c1ccccc1)C(Cl)(Cl)Cl (stereo unspecified),,inactive: 7.19% [at 30.8 µM]
Nn1cnnc1N/N=C/c1ccc(Cl)c([N+](=O)[O-])c1,"inconclusive: 1.78 µM [activator, full curve, poor fit]",
O=C(Cc1ccccc1)NCC(=O)N1CCC1,,inactive: 21.4%
O=C(O)CN1C(=O)/C(=C\c2cc(Br)ccc2OCc2ccc(Cl)cc2)SC1=S,,inactive: 14.9%
O=C(COC(=O)/C=C/c1cccc(C(F)(F)F)c1)NC(=O)NC1CCCC1,"inconclusive: 0.251 µM [activator, full curve, poor fit]",
Cc1nc(N(C)C)c2sc(=S)n(Cc3ccccc3)c2n1,,inactive: 9.98% [at 30.8 µM]
CN(Cc1ccc(F)cc1)C(=O)c1cccc(OCc2ccccc2)c1,,inactive: -0.388% [at 30.8 µM]
COc1ccccc1CCc1nnc(CCC(=O)N(C)Cc2cccc3ncccc23)o1,,inactive: 0.125%
CCCCN(C(=O)c1ccc2c(c1)OCO2)c1ccccc1,,inconclusive: 39.3% [activator]
CN(C)c1ccc2nc3c(=O)[nH]c(=O)nc-3n(CC(O)C(O)C(O)CO)c2c1 (stereo unspecified),active: 11.2 µM,
CCOC(=O)C1CCCN(c2c(NCCN3CCCCC3C)c(=O)c2=O)C1 (stereo unspecified),,inactive: 15.9%
Cc1ccc(NC(=O)CN(C)C(=O)COC(=O)C2=COCCO2)cc1,,inconclusive: 33.3% [activator] [at 30.8 µM]
O=C1OC(c2ccc3ccccc3c2O)(c2ccc3ccccc3c2O)c2ccccc21,"inconclusive: 14.1 µM [activator, partial curve]",
Cc1ccc2nc(-c3ccccc3)c(Cc3ccccn3)n2c1,,inconclusive: 43.8% [activator]
O=C1NN(c2ccccc2)C(=O)/C1=C\c1ccc(-c2cc([N+](=O)[O-])ccc2O)o1,,inconclusive: 28.3% [activator]

# A different layout for some results above:
SMILES | Potency | activation
CC(C)c1nn2c(=O)cc(COC(=O)c3cccc(NC(=O)c4cccs4)c3)nc2s1 |  | inactive: 12.1%
O=C1OC(c2ccc3ccccc3c2O)(c2ccc3ccccc3c2O)c2ccccc21 | inconclusive: 14.1 µM [activator, partial curve] | 
